This is an account of results in the supplement of paper PMC10849652.

The chains behind the UniProt entries cited, without tags or fusion partners. Where a name states a change or a piece, a line headed by the entry shows the natural chain unless it says otherwise.
PIGBOS1, A0A0B4J2F0, UniProt A0A0B4J2F0, whole entry, looked up: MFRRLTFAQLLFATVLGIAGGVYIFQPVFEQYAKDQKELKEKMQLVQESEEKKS
UniProt O60346: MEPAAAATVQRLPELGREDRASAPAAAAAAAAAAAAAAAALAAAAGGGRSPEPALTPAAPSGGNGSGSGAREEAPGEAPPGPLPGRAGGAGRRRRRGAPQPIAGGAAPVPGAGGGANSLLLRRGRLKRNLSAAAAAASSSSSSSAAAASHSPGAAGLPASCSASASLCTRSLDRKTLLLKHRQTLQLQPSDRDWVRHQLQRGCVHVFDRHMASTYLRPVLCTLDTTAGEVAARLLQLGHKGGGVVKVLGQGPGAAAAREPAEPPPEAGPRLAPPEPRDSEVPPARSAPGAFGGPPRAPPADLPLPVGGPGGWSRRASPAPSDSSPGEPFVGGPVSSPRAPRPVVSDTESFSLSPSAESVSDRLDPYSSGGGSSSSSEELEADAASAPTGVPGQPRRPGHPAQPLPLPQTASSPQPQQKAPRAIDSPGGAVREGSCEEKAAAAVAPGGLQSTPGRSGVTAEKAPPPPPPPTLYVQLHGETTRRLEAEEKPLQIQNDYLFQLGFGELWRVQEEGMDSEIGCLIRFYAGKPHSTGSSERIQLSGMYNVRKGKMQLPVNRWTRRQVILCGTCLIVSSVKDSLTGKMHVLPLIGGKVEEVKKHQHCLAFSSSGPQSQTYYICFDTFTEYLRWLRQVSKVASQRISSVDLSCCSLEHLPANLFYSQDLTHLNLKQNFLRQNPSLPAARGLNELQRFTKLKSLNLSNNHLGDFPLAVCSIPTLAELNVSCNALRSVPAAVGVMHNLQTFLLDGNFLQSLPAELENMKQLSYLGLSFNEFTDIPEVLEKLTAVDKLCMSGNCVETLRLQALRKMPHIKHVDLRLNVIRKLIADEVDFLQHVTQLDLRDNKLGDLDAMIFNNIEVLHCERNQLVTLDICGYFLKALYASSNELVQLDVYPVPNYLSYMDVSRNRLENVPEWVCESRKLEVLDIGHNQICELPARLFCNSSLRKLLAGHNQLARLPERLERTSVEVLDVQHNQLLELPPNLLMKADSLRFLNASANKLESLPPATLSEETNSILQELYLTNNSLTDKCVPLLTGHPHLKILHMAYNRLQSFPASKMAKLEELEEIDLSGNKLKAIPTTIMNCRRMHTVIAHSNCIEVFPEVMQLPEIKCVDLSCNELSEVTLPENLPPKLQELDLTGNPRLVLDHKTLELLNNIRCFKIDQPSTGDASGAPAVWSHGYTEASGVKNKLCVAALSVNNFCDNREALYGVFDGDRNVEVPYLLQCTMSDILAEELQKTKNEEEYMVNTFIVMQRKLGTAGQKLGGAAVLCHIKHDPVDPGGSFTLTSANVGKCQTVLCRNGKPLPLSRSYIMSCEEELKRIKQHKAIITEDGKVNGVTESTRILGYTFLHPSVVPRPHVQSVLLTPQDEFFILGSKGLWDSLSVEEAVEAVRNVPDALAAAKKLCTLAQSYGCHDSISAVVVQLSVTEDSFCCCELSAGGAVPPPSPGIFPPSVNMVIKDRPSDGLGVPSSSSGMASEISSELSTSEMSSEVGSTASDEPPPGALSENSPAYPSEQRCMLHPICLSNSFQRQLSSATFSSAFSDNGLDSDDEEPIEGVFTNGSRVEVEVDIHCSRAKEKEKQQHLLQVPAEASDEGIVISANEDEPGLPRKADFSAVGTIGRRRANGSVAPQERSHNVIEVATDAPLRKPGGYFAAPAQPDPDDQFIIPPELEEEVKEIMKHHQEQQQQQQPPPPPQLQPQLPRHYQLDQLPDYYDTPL
UniProt P48736: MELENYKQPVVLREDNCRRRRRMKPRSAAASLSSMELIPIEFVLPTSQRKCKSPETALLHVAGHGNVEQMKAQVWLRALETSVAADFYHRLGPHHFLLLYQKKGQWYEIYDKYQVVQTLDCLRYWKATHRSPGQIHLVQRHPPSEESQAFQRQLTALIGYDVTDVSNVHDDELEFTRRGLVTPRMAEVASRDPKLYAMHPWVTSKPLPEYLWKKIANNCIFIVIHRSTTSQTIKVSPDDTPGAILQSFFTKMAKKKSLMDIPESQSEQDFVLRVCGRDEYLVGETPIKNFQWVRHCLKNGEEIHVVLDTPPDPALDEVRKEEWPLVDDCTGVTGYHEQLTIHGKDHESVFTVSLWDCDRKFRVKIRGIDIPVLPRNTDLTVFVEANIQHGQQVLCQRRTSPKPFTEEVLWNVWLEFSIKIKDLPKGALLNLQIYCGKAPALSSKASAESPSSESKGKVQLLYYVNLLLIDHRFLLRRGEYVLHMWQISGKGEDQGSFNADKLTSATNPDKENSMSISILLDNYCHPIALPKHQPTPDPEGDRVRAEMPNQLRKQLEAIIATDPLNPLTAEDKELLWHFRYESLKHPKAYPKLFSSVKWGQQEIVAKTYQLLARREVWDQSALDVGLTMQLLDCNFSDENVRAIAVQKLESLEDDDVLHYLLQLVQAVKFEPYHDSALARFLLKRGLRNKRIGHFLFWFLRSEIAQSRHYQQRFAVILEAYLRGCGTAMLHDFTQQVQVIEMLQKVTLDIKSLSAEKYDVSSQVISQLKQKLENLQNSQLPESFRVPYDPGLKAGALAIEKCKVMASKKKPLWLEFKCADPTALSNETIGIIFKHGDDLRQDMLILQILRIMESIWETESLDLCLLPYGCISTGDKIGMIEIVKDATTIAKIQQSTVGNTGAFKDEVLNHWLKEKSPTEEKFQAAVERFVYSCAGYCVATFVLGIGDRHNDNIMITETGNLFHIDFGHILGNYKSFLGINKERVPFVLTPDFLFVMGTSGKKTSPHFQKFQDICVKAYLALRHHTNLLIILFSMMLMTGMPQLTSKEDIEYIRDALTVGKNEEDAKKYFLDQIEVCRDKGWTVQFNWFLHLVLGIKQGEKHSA
UniProt Q9HB19: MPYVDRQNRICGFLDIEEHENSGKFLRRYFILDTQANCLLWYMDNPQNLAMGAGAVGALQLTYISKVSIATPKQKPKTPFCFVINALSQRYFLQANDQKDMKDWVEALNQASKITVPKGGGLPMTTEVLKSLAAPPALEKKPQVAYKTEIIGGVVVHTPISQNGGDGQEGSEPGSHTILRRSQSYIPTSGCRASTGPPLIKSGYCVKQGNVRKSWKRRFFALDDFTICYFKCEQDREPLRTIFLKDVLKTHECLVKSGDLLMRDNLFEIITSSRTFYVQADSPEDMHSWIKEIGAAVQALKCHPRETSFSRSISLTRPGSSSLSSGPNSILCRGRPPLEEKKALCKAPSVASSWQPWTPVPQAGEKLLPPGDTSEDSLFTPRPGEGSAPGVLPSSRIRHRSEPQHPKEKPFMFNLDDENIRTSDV
UniProt Q53GA4: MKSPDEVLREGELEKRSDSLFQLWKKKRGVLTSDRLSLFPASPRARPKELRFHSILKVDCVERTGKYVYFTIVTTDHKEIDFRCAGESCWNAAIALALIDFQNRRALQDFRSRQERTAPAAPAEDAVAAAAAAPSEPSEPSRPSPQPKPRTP
UniProt Q6P5Z2: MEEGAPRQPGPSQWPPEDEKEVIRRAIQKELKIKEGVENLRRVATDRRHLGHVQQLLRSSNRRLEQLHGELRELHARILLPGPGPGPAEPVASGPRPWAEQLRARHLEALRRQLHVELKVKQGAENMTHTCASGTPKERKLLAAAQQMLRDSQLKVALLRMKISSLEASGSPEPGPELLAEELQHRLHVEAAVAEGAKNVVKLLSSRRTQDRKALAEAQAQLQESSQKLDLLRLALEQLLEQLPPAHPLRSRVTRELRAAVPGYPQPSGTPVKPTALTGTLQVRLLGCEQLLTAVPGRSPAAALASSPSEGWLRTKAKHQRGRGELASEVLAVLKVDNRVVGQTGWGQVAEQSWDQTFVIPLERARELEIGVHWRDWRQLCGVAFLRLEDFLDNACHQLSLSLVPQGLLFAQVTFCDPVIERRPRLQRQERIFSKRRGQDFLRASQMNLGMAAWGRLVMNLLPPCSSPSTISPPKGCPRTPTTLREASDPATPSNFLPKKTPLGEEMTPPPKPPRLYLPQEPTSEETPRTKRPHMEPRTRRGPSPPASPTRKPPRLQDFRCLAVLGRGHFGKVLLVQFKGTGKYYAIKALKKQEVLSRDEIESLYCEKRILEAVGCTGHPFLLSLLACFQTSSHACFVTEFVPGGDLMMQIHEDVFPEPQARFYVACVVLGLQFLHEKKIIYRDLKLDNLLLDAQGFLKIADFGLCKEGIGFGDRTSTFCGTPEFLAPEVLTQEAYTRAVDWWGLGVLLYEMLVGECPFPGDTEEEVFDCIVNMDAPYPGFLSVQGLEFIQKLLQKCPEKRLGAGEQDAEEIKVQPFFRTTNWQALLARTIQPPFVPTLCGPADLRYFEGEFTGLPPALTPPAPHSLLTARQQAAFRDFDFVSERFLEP
UniProt P11309, whole entry, looked up: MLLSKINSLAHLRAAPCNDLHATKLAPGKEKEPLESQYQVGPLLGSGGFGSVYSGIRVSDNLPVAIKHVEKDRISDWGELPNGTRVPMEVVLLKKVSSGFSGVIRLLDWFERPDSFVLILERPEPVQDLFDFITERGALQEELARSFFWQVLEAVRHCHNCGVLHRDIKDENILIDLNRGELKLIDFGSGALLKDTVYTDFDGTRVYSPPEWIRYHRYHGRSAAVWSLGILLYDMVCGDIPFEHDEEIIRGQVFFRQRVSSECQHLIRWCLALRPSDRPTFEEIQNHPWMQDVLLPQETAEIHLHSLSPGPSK
UniProt Q8IXK0: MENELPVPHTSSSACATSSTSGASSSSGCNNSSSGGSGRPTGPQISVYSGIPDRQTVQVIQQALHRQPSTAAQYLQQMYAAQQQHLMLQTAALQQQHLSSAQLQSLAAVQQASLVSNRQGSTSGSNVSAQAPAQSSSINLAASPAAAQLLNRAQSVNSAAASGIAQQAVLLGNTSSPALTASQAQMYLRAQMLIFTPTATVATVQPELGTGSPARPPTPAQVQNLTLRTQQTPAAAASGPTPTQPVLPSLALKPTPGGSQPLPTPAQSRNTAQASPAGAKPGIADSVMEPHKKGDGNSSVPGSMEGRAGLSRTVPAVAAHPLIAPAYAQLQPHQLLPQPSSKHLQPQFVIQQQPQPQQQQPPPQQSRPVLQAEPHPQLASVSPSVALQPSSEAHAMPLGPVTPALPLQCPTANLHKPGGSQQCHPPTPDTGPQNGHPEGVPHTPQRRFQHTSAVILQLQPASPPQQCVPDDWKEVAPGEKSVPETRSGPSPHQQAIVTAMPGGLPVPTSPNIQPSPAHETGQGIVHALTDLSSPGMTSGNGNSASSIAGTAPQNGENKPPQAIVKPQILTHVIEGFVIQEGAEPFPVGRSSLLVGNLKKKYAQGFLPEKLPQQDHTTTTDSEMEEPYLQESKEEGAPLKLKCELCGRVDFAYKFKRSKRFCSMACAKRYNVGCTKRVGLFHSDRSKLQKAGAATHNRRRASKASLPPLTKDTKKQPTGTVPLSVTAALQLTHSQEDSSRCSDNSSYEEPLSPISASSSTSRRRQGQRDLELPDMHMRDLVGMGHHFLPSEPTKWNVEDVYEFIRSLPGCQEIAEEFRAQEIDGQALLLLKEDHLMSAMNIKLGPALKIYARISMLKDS
UniProt Q9BSJ6: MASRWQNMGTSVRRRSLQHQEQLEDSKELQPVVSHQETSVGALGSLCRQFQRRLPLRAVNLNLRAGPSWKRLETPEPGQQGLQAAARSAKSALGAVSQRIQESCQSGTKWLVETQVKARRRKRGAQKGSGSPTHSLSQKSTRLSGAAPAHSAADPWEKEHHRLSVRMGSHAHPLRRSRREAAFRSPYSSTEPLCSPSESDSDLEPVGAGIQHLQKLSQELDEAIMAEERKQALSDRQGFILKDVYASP
UniProt Q92521: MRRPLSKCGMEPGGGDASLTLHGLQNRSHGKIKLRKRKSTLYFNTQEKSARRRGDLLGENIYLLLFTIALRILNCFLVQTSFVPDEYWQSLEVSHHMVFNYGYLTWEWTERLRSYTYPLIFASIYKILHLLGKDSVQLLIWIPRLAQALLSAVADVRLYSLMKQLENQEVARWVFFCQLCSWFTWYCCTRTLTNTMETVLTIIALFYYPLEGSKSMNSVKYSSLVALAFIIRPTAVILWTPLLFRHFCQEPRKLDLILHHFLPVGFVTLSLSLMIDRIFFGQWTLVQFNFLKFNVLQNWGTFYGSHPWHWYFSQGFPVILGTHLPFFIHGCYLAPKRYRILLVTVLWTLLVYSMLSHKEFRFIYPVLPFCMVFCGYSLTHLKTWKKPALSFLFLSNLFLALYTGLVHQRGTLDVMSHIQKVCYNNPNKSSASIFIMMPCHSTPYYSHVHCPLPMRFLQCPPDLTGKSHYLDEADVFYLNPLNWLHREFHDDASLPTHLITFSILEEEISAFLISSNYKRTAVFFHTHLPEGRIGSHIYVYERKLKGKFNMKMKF
UniProt Q8N4B1: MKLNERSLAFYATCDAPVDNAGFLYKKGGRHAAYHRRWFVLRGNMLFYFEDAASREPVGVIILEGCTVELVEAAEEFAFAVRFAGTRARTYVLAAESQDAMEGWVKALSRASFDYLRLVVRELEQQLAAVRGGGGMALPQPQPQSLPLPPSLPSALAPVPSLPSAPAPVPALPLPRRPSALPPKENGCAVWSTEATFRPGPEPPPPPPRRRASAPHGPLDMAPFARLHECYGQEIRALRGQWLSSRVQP

The list shows a part of the results.

Compound in the first assay: Cc1ccc(-n2nc(C(C)(C)C)cc2NC(=O)Nc2ccc(OCCN3CCOCC3)c3ccccc23)cc1 [doramapimod]
The assay can be described thus: log2 fold change, soluble protein after heating vs DMSO (PISA); higher = thermal stabilisation; K562 lysate, 10 uM; active = over 0.2 and 3.5 SD of the protein, either way, in both replicates (recomputed). The procedure, abridged: (§1)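 K562 pellets were dounce-homogenised in PBS pH 7.4 containing 1 mM MgCl2, and the crude extract, at 1 mg/mL protein, was exposed to 10 μM compound for 30 min. Aliquots were heated for 3 min across 48°C-58°C, pooled, brought to 0.5% NP-40 at 4°C and spun at 21,000xg for 90 min, with the supernatant taken as soluble protein. TMTpro 16plex LC-MS/MS with equalised channel sums quantified that protein. Values are log-two fold changes in thermal stability relative to solvent controls, taken from duplicates.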
Consider PIGBOS1, A0A0B4J2F0, for which the log2 fold change is inactive: 0.088.
Still for that read-out and setting: the value for PKMYT1 (UniProt Q99640) was inactive: 0.101; that for PITX1 (UniProt P78337) was inactive: 0.065.
Regarding PIAS4 (UniProt Q8N2W9), the log2 fold change is inactive: 0.03.
The same measure, in the same setting: to PHOSPHO2 (UniProt C9JD35) belongs inactive: -0.084.
The same measure, in the same setting: to PHF8 (UniProt Q9UPP1) belongs inactive: 0.061; to PIAS2 (UniProt O75928), inactive: -0.007; to PIGW (UniProt Q7Z7B1), inactive: -0.05.
Regarding PHOX2B (UniProt Q99453), the log2 fold change is inactive: 0.191.
Same read-out and setting: to PITPNM1 (UniProt O00562) belongs inactive: -0.066; to PLEK (UniProt P08567), inactive: -0.127.
Still for that read-out and setting: the value for PIP5K1B isoform 2 (UniProt O14986) was inactive: 0.079.
Still for that read-out and setting: to PHLPP1 (UniProt O60346) belongs inactive: 0.045; to PHF19 (UniProt Q5T6S3), inactive: 0.021.
Turning to PIK3CG (UniProt P48736), the log2 fold change was inactive: 0.04.
As for PLEKHA2 (UniProt Q9HB19), the log2 fold change is inactive: 0.053.
Turning to PHLDB3 (UniProt Q6NSJ2), the log2 fold change is inactive: -0.005.
Same read-out and setting: the value for PHLDA2 (UniProt Q53GA4) was inactive: 0.007.
The same measure, in the same setting: to PKN3 (UniProt Q6P5Z2) belongs inactive: -0.091; to PIK3AP1 (UniProt Q6ZUJ8), inactive: -0.004.
The same measure, in the same setting: to PIM1 isoform 2 (UniProt P11309) belongs inactive: -0.012.
Take PHC2 isoform 5 (UniProt Q8IXK0): the log2 fold change was inactive: 0.08.
Regarding PIAS1 isoform 2 (UniProt O75925), the log2 fold change is inactive: 0.21.
PLEKHA3 (UniProt Q9HB20): the log2 fold change is inactive: -0.056.
In the case of PLEC isoform 3 (UniProt Q15149), the log2 fold change is inactive: 0.102.
On the same count and under the same terms, to PIMREG (UniProt Q9BSJ6) belongs inactive: 0.184; to PIGB (UniProt Q92521), inactive: -0.051; to PHF20 (UniProt Q9BVI0), inactive: 0.017.
Turning to PHC1 (UniProt P78364), the log2 fold change was inactive: -0.254.

Compound in a further assay: Cc1ccc(NC(=O)c2ccc(CN3CC[C@H](N(C)C)C3)c(C(F)(F)F)c2)cc1Nc1nccc(-c2cncnc2)n1 [bafetinib]
Described as above. In a few lines:
as §1
Turning to PITX1 (UniProt P78337), the log2 fold change was inactive: -0.009.
Still for that read-out and setting: the value for PHOX2B (UniProt Q99453) was inactive: -0.29; that for PITPNM1 (UniProt O00562) was inactive: 0.055; that for PIP5K1B isoform 2 (UniProt O14986) was inactive: -0.048.
On the same count and under the same terms, the value for PHLPP1 (UniProt O60346) was inactive: 0.068.
On the same count and under the same terms, to PIK3CG (UniProt P48736) belongs inactive: -0.111.
Consider PLEKHA2 (UniProt Q9HB19), for which the log2 fold change was inactive: -0.03.
Take PHF19 isoform 2 (UniProt Q5T6S3): the log2 fold change is inactive: -0.026.
On the same count and under the same terms, the value for PKN3 (UniProt Q6P5Z2) was inactive: -0.252.
On the same count and under the same terms, the value for PIK3AP1 (UniProt Q6ZUJ8) was inactive: -0.05; that for PIM1 isoform 2 (UniProt P11309) was inactive: -0.043.
For PLEC isoform 3 (UniProt Q15149), the log2 fold change was inactive: -0.127.
PIMREG (UniProt Q9BSJ6): the log2 fold change was inactive: -0.136.
On the same count and under the same terms, the value for PIGB (UniProt Q92521) was inactive: -0.058.
For the target PHC1 (UniProt P78364), the log2 fold change was inactive: 0.

Compound in a further assay: Cc1cccc(CC(=O)N2CCc3c2ccc(-c2cn(C)c4ncnc(N)c24)c3F)n1
The assay is described as above. In a few lines:
as §1
On to PIGBOS1, A0A0B4J2F0, for which the log2 fold change is inactive: -0.205.
The same measure, in the same setting: the value for PKMYT1 (UniProt Q99640) was inactive: 0.028; that for PIM2 (UniProt Q9P1W9) was inactive: -0.152; that for PLEKHG2 (UniProt Q9H7P9) was inactive: 0.195.
The same measure, in the same setting: the value for PIAS4 (UniProt Q8N2W9) was inactive: 0.243; that for PHF8 (UniProt Q9UPP1) was inactive: 0.195; that for PHLPP1 (UniProt O60346) was inactive: -0.003.
For PIK3CG (UniProt P48736), the log2 fold change is inactive: 0.075.
Still for that read-out and setting: to PLEKHA2 (UniProt Q9HB19) belongs inactive: -0.051; to PHF19 isoform 2 (UniProt Q5T6S3), inactive: -0.023.
Still for that read-out and setting: the value for PKN3 (UniProt Q6P5Z2) was inactive: 0.18; that for PIM1 isoform 2 (UniProt P11309) was inactive: -0.025; that for PHC2 isoform 5 (UniProt Q8IXK0) was inactive: 0.
Same read-out and setting: to PIAS1 isoform 2 (UniProt O75925) belongs inactive: 0.361; to PLEKHA3 (UniProt Q9HB20), inactive: 0.124; to PKP4 (UniProt Q99569), inactive: -0.03.
With PLEC isoform 3 (UniProt Q15149), the log2 fold change was inactive: -0.005.
As to PIMREG (UniProt Q9BSJ6), the log2 fold change was inactive: -0.157.
For PLAUR (UniProt Q03405), the log2 fold change was inactive: -0.139.
With PHETA1 isoform 4 (UniProt Q8N4B1), the log2 fold change is inactive: -0.001.
On to PIGB (UniProt Q92521), for which the log2 fold change is inactive: -0.006.
